Laboratory results reported in publication PMC8880767.

By UniProt entry, the sequences of proteins in these tests, tags left out. Where a name states a change or a piece, a line headed by the entry shows the natural chain unless it says otherwise.
UniProt P39938: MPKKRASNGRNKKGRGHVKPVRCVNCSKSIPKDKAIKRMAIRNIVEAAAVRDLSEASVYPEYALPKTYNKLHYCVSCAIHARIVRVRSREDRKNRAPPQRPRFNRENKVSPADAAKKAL

Molecular target: T1, Rps3-TAP (Rps3–CBP–protein A) (S. cerevisiae) (UniProt P05750)
T1 sequence: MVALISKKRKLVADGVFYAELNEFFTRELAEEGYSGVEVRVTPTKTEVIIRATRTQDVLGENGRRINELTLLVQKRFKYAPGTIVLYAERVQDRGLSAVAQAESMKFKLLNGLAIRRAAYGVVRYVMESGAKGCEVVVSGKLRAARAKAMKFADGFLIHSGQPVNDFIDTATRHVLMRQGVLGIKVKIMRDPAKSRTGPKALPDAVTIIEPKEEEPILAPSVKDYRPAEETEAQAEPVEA
Assay: pull-down; Rps3-TAP (preexisting) ribosomes from yeast lysate on IgG sepharose, ~2 h 4°C; washed with 50 mM tris pH 7.5, 100 mM NaCl, 10 mM MgCl2, 0.075% NP-40; eluted with TEV protease; Western blot; cells with or without 1 M NaCl or 1 M sorbitol, or after 1 h recovery

binding: binds
Substance: Rps26 (untagged, endogenous yeast protein) (from UniProt P39938)

No constants are given. Whether binding was seen depends on the method and setting. In cells and extracts the contact can be indirect. A result given as binding can be weak or reduced; the word gives no strength.
